The other results are listed elsewhere or left out. Shown are side measurements of this screen, not its main read-out; they come without a call. Most of these compounds were active or inconclusive in the main read-out, so they are no random draw. Potencies come from curve fits of mixed quality, noted in brackets.
Assay: qHTS Assay to Find Inhibitors of Chronic Active B-Cell Receptor Signaling
Conditions: ABC-DLBCL IkBa-CBG/CBR reporter, luminescence ratio (green luciferase fused to IkBa over red control in TMD8 lymphoma cells), 4 h; measured here: CBR red luminescence, cell number
How it was run: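 TMD8 human ABC-DLBCL cells with doxycycline-inducible IκBα–green luciferase fusion and unfused red luciferase, in 0.5% FBS medium; compounds up to 46 uM, 4 h at 37C. Green/red luminescence ratio, filter-overlap corrected, fitted to concentration-response curves.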

With `CCO[C@H]1OC(C(=O)Nc2ccccc2)=C[C@@H](c2ccc(Br)cc2)[C@@H]1CCCO` as the compound, how does the AC50 read?
Its AC50 is 6.31 µM [falling, full curve].

Which AC50 does the source give for `O=C(O)c1ccc(-n2ncc3c2/C(=C/c2cccc([N+](=O)[O-])c2)CC3)cc1` here?
Its AC50 is 0.891 µM [falling, full curve].

Which AC50 does the source give for `O=C(Cc1ccccc1)NNC(=O)c1ccccc1C(=O)O` here?
The AC50 was 4.47 µM [falling, partial curve, poor fit].

For `O=C(O)CCNc1ccc2c(c1)OCCO2`, which AC50 is on record?
The AC50 was 7.31 µM [rising, partial curve].

Which AC50 does the source give for `CC(C)c1ccc(Nc2nnc(SCC(=O)c3nnc(-c4ccccc4)o3)s2)cc1` here?
Its AC50 is 23.1 µM [rising, single point].

Which AC50 does the source give for `NC(=NCCCCCCN=C(N)/N=C(\N)Nc1ccc(Cl)cc1)/N=C(\N)Nc1ccc(Cl)cc1` here?
The AC50 was 7.31 µM [rising, partial curve].

Which AC50 does the source give for `O=C(/C=C/c1cccc(Cl)c1)NCc1cccs1` here?
The AC50 was 4.47 µM [falling, full curve, poor fit].

With `Cc1ccc(N(CC(=O)NCc2ccco2)C(=O)CCC(=O)Nc2nccs2)cc1` as the compound, how does the AC50 read?
The AC50 was 12.6 µM [falling, partial curve].

With `Cc1ccc(C)c(N2CCN(C(=O)c3cc4c(C)nc5ccccc5c4o3)CC2)c1` as the compound, how does the AC50 read?
The AC50 was 22.4 µM [falling, single point].

Which AC50 does the source give for `N#C/C(=C\c1ccncc1)c1nc2c(s1)CCCC2` here?
Its AC50 is 2.51 µM [rising, full curve, poor fit].

With `Cc1cccc(N(O)C(=O)Nc2cccc(Cl)c2)c1` as the compound, how does the AC50 read?
The AC50 was 17.8 µM [rising, single point].

With `CCOC(=O)Cn1nnc(-c2cccc(OC)c2)n1` as the compound, how does the AC50 read?
The AC50 was 0.631 µM [rising, full curve, poor fit].

Which AC50 does the source give for `O=c1cc(-c2ccncc2)oc2c1ccc1ccccc12` here?
The AC50 was 15.8 µM [rising, single point].

Which AC50 does the source give for `CCc1sc(C(=O)Nc2nc(C)cs2)cc1C` here?
Its AC50 is 10 µM [falling, partial curve, poor fit].

Which AC50 does the source give for `Cc1cccc(/C=N/NC(=O)c2ccc(NC(=O)c3ccccc3C)cc2)n1` here?
The AC50 was 6.31 µM [falling, partial curve].

With `CC1CCN(c2c(NCC3CCC(C(=O)NC4CCCCCC4)CC3)c(=O)c2=O)CC1` (centres undefined) as the compound, how does the AC50 read?
The AC50 was 11.2 µM [rising, single point].

For `COc1ccccc1N(CCC#N)C(=O)CSc1nnc2ccccn12`, which AC50 is on record?
The AC50 was 29.1 µM [rising, single point].

For `Cc1cc(C)n2nc(N)c(N=Nc3ccc(Cl)cc3)c2n1`, which AC50 is on record?
Its AC50 is 1.46 µM [rising, full curve].

Which AC50 does the source give for `CC(=C/c1ccccc1)/C=N/NC(=O)c1cc(C)oc1C` here?
Its AC50 is 0.92 µM [falling, full curve].

Source: PubChem BioAssay AID493014 (National Center for Advancing Translational Sciences (NCATS), 2011)
